# According to the supplement of paper PMC7024190:
# This is one part of the list. Single values are uncertain here, since repeats match poorly.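 The cells were human embryonic kidney cells carrying a Renilla luciferase gene, driven by the HSV-TK promoter, on a plasmid put in briefly by transfection. This is the first-round screen of about ten thousand compounds, looking for ones that raise reporter output.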
# Test system: HEK 293FT
# Assay: log relative Renilla luciferase luminescence (reporter expression vs reference, reference not stated) (log (base not stated)); higher = higher recombinant reporter expression
# Conditions: 10 µM; time after transfection 48 h
row,Structure (SMILES),log
1,CC1(C)S[C@@H]2[C@H](/N=C/N3CCCCCC3)C(=O)N2[C@H]1C(=O)O,0.033
2,O=C(O[C@@H]1Cc2c(O)cc(O)cc2O[C@@H]1c1cc(O)c(O)c(O)c1)c1cc(O)c(O)c(O)c1 [Epigallocatechin gallate],0.0917
3,CC(c1cc2ccccc2s1)N(O)C(N)=O (stereo unspecified),-0.0355
4,CN(C)CCOc1ccc(/C(=C(/CCCl)c2ccccc2)c2ccccc2)cc1,0.083
5,CCOC(=O)[C@H](CCc1ccccc1)N[C@@H](C)C(=O)N1[C@H](C(=O)O)C[C@@H]2CCC[C@@H]21,0.0439
6,CN(C)CCC[C@@]1(c2ccc(F)cc2)OCc2cc(C#N)ccc21,-0.156
7,COc1ccc(C2CNC(=O)C2)cc1OC1CCCC1 (stereo unspecified),-0.101
8,COCCOC(=O)C1=C(C)NC(C)=C(C(=O)OC(C)C)C1c1cccc([N+](=O)[O-])c1 (stereo unspecified),0.0133
9,CS(=O)(=O)c1ccc(C2=C(c3ccccc3)C(=O)OC2)cc1,0.15
10,Cc1nc2n(c(=O)c1CCN1CCC(c3noc4cc(F)ccc34)CC1)CCCC2,-0.0927
11,CN1C2CCCC1CC(NC(=O)c1nn(C)c3ccccc13)C2 (stereo unspecified),0.121
12,CCc1oc2ccccc2c1C(=O)c1cc(Br)c(O)c(Br)c1,-0.0265
13,CCc1ccc(CCOc2ccc(CC3SC(=O)NC3=O)cc2)nc1 (stereo unspecified),-0.126
14,CC(C)[C@H](N)C(=O)OCCOCn1cnc2c(=O)nc(N)[nH]c21,0.0634
15,CC(=O)N1CCN(c2ccc(OCC3COC(Cn4ccnc4)(c4ccc(Cl)cc4Cl)O3)cc2)CC1 (stereo unspecified),-0.437
16,CN1CCN(C2=Nc3cc(F)ccc3Cc3ccccc32)CC1 [Fluperlapine],0.172
